# From PubChem BioAssay AID493014 (National Center for Advancing Translational Sciences (NCATS), 2011)
# The list shows a part of the results. Further columns of the screen follow, without active or inactive calls. Most of these compounds were active or inconclusive in the main read-out, so they are no random draw. Potencies come from curve fits of mixed quality, noted in brackets.
# Assay: qHTS Assay to Find Inhibitors of Chronic Active B-Cell Receptor Signaling
# Settings: ABC-DLBCL IkBa-CBG/CBR reporter, luminescence ratio (green luciferase fused to IkBa over red control in TMD8 lymphoma cells), 4 h
# How it was run: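 TMD8 human ABC-DLBCL cells with doxycycline-inducible IκBα–green luciferase fusion and unfused red luciferase, in 0.5% FBS medium; compounds up to 46 uM, 4 h at 37C. Green/red luminescence ratio, filter-overlap corrected, fitted to concentration-response curves.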
# [1] = measured here: CBR red luminescence, cell number
SMILES,AC50 [1],AC50 (measured here: IkBa-CBG green luminescence)
O=C(NC(=S)Nc1cccnc1)c1cccc(Br)c1,"3.55 µM [rising, partial curve, poor fit]",
COc1ccccc1C1C(C(=O)c2sc(C)nc2C)=C(O)C(=O)N1CCN1CCOCC1 (stereo not drawn),"14.1 µM [falling, single point]",
CCCn1nnc(NC(=O)c2ccccc2Br)n1,"8.91 µM [falling, partial curve]",
Oc1ccc(Nc2nc(NCC3CCCO3)c3ccccc3n2)cc1 (stereo not drawn),"11.2 µM [falling, partial curve, poor fit]",
CCCOc1ccc(/C=N/NC(=S)Nc2ccccc2[N+](=O)[O-])c(O)c1,"0.517 µM [falling, full curve, poor fit]",
CCCCc1ccc(NC(=O)CC(C)(C)C)cc1,"2.31 µM [rising, partial curve, poor fit]",
c1ccc2c(c1)OCC(c1nnc3sc(-c4cnccn4)nn13)O2 (stereo not drawn),"29.1 µM [falling, single point]",
CC(C)COC(=O)COc1cc(Cl)c(Cl)cc1Cl,"0.103 µM [rising, full curve, poor fit]",
COc1ccc(Cl)cc1C(=O)NCC(C)C,"3.98 µM [rising, partial curve, poor fit]",
COC(=O)c1cc(OC)c(OC)cc1NC(=S)N1CCC(C(N)=O)CC1,"2.59 µM [rising, single point]",
O=C(CCc1nnc(CCCc2ccccc2)o1)NCC(F)(F)F,"12.6 µM [rising, partial curve, poor fit]",
COc1ccc(CCNC(=O)C(=O)NCC2CCCN2S(=O)(=O)c2ccccc2)cc1 (stereo not drawn),"32.6 µM [falling, single point]",
CN1C(=O)c2cccc3c(S(=O)(=O)NCc4ccco4)ccc1c23,,"3.26 µM [falling, partial curve, poor fit]"
O=C(Nc1ccc(Cc2ccc(NC(=O)C3CC3)c(O)c2)cc1O)C1CC1,"3.66 µM [rising, full curve, poor fit]",
COc1ccc(-c2cc(-c3ccc(C)cc3)n[nH]2)c(O)c1,"10 µM [falling, partial curve, poor fit]",
O=C(CSc1nnc(CNC(=O)c2ccc(F)cc2)o1)Nc1ccc2c(c1)OCO2,"35.5 µM [rising, single point]",
Cc1cc(=O)n2cc(-c3ccccc3)nc2[nH]1,"4.11 µM [falling, partial curve]",
CN1CCN(c2ccc(Cl)cc2NC(=O)c2ccc(S(=O)(=O)N(C)C)cc2)CC1,"3.26 µM [falling, partial curve, poor fit]",

# Part of the list above, bar-delimited:
SMILES | AC50 [1] | AC50 (measured here: IkBa-CBG green luminescence)
O=C(CSc1nnc(CNC(=O)c2ccc(F)cc2)o1)Nc1ccc2c(c1)OCO2 | 35.5 µM [rising, single point] | 
Cc1cc(=O)n2cc(-c3ccccc3)nc2[nH]1 | 4.11 µM [falling, partial curve] | 
